Assay results reported in patent publication US20150368329A1 (ONCOMED PHARMACEUTICALS, published 2015).
These are yes or no findings as the source states them, for the method shown. Binding can be weak; no strength is given.

Protein sequences, listed by entry. Tags and fused reporters are not part of them. Lines headed by an entry give the natural chain unless they say otherwise; changes in a name come on top.
UniProt Q00731: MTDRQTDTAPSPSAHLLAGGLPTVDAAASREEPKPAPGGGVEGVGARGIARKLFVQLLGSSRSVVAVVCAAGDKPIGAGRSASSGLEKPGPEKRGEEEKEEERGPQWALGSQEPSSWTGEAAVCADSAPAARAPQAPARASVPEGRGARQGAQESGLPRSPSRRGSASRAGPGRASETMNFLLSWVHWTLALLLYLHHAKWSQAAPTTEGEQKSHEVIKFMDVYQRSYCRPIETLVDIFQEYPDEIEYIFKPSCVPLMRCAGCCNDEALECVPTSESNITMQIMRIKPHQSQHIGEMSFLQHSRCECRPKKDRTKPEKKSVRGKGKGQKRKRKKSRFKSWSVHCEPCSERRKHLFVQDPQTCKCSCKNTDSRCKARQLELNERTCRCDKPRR

Experiments:
[1] = target: recombinant mouse VEGF165 (mouse) (UniProt Q00731); experiment: SPR (Biacore 2000), summary of Example 1
[2] = target: recombinant mouse VEGF165 (mouse) (UniProt Q00731); experiment: SPR (Biacore 2000)

Binder	binding [1]	binding [2]
anti-VEGF/anti-DLL4 bispecific antibody 219R45-MB-21M18 (bispecific antibody, human IgG2) heavy 1: QVQLVQSGAEVKKPGASVKVSCKASGYTFTNYWMHWVRQAPGQGLEWMGDINPSNGRTSYKEKFKRRVTLSVDKSSSTAYMELSSLRSEDTAVYFCTIHYDDKYYPLMDYWGQGTLVTVSSASTKGPSVFPLAPCSRSTSESTAALGCLVKDYFPEPVTVSWNSGALTSGVHTFPAVLQSSGLYSLSSVVTVPSSNFGTQTYTCNVDHKPSNTKVDKTVERKCCVECPPCPAPPVAGPSVFLFPPKPKDTLMISRTPEVTCVVVDVSHEDPEVQFNWYVDGVEVHNAKTKPREEQFNSTFRVVSVLTVVHQDWLNGKEYKCKVSNKGLPAPIEKTISKTKGQPREPQVYTLPPSREKMTKNQVSLTCLVKGFYPSDIAVEWESNGQPENNYKTTPPMLKSDGSFFLYSKLTVDKSRWQQGNVFSCSVMHEALHNHYTQKSLSLSPGK heavy 2: QVQLVQSGAEVKKPGASVKISCKASGYSFTAYYIHWVKQAPGQGLEWIGYISSYNGATNYNQKFKGRVTFTTDTSTSTAYMELRSLRSDDTAVYYCARDYDYDVGMDYWGQGTLVTVSSASTKGPSVFPLAPCSRSTSESTAALGCLVKDYFPEPVTVSWNSGALTSGVHTFPAVLQSSGLYSLSSVVTVPSSNFGTQTYTCNVDHKPSNTKVDKTVERKCCVECPPCPAPPVAGPSVFLFPPKPKDTLMISRTPEVTCVVVDVSHEDPEVQFNWYVDGVEVHNAKTKPREEQFNSTFRVVSVLTVVHQDWLNGKEYKCKVSNKGLPAPIEKTISKTKGQPREPQVYTLPPSREEMTKNQVSLTCLVEGFYPSDIAVEWESNGQPENNYKTTPPMLDSDGSFFLYSELTVDKSRWQQGNVFSCSVMHEALHNHYTQKSLSLSPGK light: DIVMTQSPDSLAVSLGERATISCRASESVDNYGISFMKWFQQKPGQPPKLLIYAASNQGSGVPDRFSGSGSGTDFTLTISSLQAEDVAVYYCQQSKEVPWTFGGGTKVEIKRTVAAPSVIFPPSDEQLKSGTASVVCLLNNFYPREAKVQWKVDNALQSGNSQESVTEQDSKDSTYSLSSTLTLSKADYEKHKVYACEVTHQGLSSPVTKSFNRGEC	binds	binds
anti-VEGF/anti-DLL4 bispecific antibody 219R45-MB-21R79 (bispecific antibody, human IgG2) heavy 1: QVQLVQSGAEVKKPGASVKVSCKASGYTFTNYWMHWVRQAPGQGLEWMGDINPSNGRTSYKEKFKRRVTLSVDKSSSTAYMELSSLRSEDTAVYFCTIHYDDKYYPLMDYWGQGTLVTVSSASTKGPSVFPLAPCSRSTSESTAALGCLVKDYFPEPVTVSWNSGALTSGVHTFPAVLQSSGLYSLSSVVTVPSSNFGTQTYTCNVDHKPSNTKVDKTVERKCCVECPPCPAPPVAGPSVFLFPPKPKDTLMISRTPEVTCVVVDVSHEDPEVQFNWYVDGVEVHNAKTKPREEQFNSTFRVVSVLTVVHQDWLNGKEYKCKVSNKGLPAPIEKTISKTKGQPREPQVYTLPPSREKMTKNQVSLTCLVKGFYPSDIAVEWESNGQPENNYKTTPPMLKSDGSFFLYSKLTVDKSRWQQGNVFSCSVMHEALHNHYTQKSLSLSPGK heavy 2: QVQLVQSGAEVKKPGASVKISCKASGYSFTAYYIHWVKQAPGQGLEWIGYIANYNRATNYNQKFKGRVTFTTDTSTSTAYMELRSLRSDDTAVYYCARDYDYDVGMDYWGQGTLVTVSSASTKGPSVFPLAPCSRSTSESTAALGCLVKDYFPEPVTVSWNSGALTSGVHTFPAVLQSSGLYSLSSVVTVPSSNFGTQTYTCNVDHKPSNTKVDKTVERKCCVECPPCPAPPVAGPSVFLFPPKPKDTLMISRTPEVTCVVVDVSHEDPEVQFNWYVDGVEVHNAKTKPREEQFNSTFRVVSVLTVVHQDWLNGKEYKCKVSNKGLPAPIEKTISKTKGQPREPQVYTLPPSREEMTKNQVSLTCLVEGFYPSDIAVEWESNGQPENNYKTTPPMLDSDGSFFLYSELTVDKSRWQQGNVFSCSVMHEALHNHYTQKSLSLSPGK light: DIVMTQSPDSLAVSLGERATISCRASESVDNYGISFMKWFQQKPGQPPKLLIYAASNQGSGVPDRFSGSGSGTDFTLTISSLQAEDVAVYYCQQSKEVPWTFGGGTKVEIKRTVAAPSVIFPPSDEQLKSGTASVVCLLNNFYPREAKVQWKVDNALQSGNSQESVTEQDSKDSTYSLSSTLTLSKADYEKHKVYACEVTHQGLSSPVTKSFNRGEC	binds	binds
